The experiment has as its target T1, DET1 (De-ETiolated1), tomato, N-terminally 6xMYC-tagged (tomato) (UniProt Q9ZNU6).
T1 sequence: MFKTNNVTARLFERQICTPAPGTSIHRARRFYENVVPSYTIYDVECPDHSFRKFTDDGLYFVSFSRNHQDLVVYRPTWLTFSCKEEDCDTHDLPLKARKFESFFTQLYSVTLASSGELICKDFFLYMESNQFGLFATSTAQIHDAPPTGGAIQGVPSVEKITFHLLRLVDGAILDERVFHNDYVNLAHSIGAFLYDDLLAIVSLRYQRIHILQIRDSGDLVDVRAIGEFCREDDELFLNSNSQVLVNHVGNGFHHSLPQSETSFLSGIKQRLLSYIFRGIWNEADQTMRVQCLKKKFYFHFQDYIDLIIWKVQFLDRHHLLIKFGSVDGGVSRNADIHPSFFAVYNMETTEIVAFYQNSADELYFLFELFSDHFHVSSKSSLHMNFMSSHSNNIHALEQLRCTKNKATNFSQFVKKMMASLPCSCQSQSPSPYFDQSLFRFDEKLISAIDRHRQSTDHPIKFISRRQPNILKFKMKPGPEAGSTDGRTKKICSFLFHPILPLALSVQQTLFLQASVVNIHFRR
The experiment is described as follows: co-IP; total protein extracts of co-infiltrated N. benthamiana leaves; rabbit anti-Myc antibody overnight at 4°C in lysis buffer (50 mM Tris pH 7.8, 10 mM EDTA, 300 mM sucrose, 100 mM NaCl, 1 mM DTT), protein-A Sepharose 2 h at 4°C, three washes with lysis buffer; western blot with anti-HA. A general note: Immunoblotting shows a protein as a band on a membrane.

These are yes or no findings as the source states them, for the method shown. Binding seen in cells or lysates may run through a third protein. Some entries that bind do so weakly or less than the wild type. Sequences can lack the tags named with a protein.

B1: DDB1 (UV-Damaged DNA Binding protein 1), tomato, N-terminally 3xHA-tagged (protein, UniProt Q6QNU4 1-1090)
chain: MSVWNYVVTAHKPTNVTHSCVGNFTGPQELNLIIAKCTRIEIHLLTPQGLQPMLDVPIYGRIATLELFRPHGETQDLLFIATERYKFCVLQWDTEASEVITRAMGDVSDRIGRPTDNGQIGIIDPDCRLIGLHLYDGLFKVIPFDNKGQLKEAFNIRLEELQVLDIKFLYGCPKPTIVVLYQDNKDARHVKTYEVSLKDKDFIEGPWAQNNLDNGASLLIPVPPPLCGVLIIGEETIVYCSASAFKAIPIRPSITRAYGRVDADGSRYLLGDHNGLLHLLVITHEKEKVTGLKIELLGETSIASTISYLDNAFVFIGSSYGDSQLVKLNLQPDTKGSYVEVLERYVNLGPIVDFCVVDLERQGQGQVVTCSGAYKDGSLRIVRNGIGINEQASVELQGIKGMWSLRSATDDPYDTFLVVSFISETRVLAMNLEDELEETEIEGFNSQVQTLFCHDAVYNQLVQVTSNSVRLVSSTSRDLKNEWFAPVGYSVNVATANATQVLLATGGGHLVYLEIGDGVLNEVKYAKLDYDISCLDINPIGENPNYSNIAAVGMWTDISVRIYSLPDLNLITKEQLGGEIIPRSVLMCSFEGISYLLCALGDGHLLNFVLSMSTGELTDRKKVSLGTQPITLRTFSSKDTTHVFAASDRPTVIYSSNKKLLYSNVNLKEVSHMCPFNVAAFPDSLAIAKEGELTIGTIDEIQKLHIRSIPLGEHARRISHQEQTRTFALCSVKYTQSNADDPEMHFVRLLDDQTFEFISTYPLDQFEYGCSILSCSFSDDSNVYYCIGTAYVMPEENEPTKGRILVFIVEDGKLQLIAEKETKGAVYSLNAFNGKLLAAINQKIQLYKWASREDGGSRELQTECGHHGHILALYVQTRGDFIVVGDLMKSISLLIFKHEEGAIEERARDYNANWMSAVEILDDDIYLGAENNFNLFTVRKNSEGATDEERSRLEVVGEYHLGEFVNRFRHGSLVMRLPDSDVGQIPTVIFGTVNGVIGVIASLPHDQYLFLEKLQTNLRKVIKGVGGLSHEQWRSFYNEKKTVDAKNFLDGDLIESFLDLSRNRMEEISKAMSVPVEELMKRVEELTRLH
For the molecule B1, the binding result was “binds”.

Values taken from paper PMC2267177.
